Consider 1 molecule from patent publication US20100292231A1, “Indazole Compounds for Treating Inflammatory Disorders, Demyelinating Disorders and Cancers” (priority 2007, published 2010).

Protein sequences, listed by entry. Tags and fused reporters are not part of them. Lines headed by an entry give the natural chain unless they say otherwise; changes in a name come on top. Residues count along the entry.
UniProt P36888, 27-993 limits assumed: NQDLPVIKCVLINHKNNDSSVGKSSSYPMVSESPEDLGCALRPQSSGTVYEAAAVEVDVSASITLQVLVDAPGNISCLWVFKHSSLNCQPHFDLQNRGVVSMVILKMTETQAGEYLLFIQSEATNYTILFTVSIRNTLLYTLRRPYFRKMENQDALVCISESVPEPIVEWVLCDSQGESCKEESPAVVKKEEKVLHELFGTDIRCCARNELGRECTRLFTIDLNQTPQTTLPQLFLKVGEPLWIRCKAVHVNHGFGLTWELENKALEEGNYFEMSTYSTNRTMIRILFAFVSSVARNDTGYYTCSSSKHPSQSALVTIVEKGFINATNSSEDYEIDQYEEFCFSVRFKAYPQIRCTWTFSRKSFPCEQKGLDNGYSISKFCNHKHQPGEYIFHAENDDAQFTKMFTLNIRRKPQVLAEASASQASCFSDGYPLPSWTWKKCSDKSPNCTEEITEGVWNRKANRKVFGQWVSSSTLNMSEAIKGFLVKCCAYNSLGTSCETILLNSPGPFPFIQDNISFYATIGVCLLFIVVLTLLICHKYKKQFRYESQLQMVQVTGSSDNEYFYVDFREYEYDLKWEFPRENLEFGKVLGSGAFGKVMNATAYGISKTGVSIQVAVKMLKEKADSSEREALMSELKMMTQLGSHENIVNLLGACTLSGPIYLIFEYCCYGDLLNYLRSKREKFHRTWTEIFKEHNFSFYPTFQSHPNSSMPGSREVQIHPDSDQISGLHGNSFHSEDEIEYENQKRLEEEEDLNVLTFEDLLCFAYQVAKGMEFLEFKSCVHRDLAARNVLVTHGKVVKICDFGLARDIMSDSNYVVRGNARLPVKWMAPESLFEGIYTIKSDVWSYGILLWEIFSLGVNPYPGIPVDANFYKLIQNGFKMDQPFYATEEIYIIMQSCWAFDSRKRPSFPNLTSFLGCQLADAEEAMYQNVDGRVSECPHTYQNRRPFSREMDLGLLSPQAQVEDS
UniProt P36888, 27-993 D835Y limits assumed: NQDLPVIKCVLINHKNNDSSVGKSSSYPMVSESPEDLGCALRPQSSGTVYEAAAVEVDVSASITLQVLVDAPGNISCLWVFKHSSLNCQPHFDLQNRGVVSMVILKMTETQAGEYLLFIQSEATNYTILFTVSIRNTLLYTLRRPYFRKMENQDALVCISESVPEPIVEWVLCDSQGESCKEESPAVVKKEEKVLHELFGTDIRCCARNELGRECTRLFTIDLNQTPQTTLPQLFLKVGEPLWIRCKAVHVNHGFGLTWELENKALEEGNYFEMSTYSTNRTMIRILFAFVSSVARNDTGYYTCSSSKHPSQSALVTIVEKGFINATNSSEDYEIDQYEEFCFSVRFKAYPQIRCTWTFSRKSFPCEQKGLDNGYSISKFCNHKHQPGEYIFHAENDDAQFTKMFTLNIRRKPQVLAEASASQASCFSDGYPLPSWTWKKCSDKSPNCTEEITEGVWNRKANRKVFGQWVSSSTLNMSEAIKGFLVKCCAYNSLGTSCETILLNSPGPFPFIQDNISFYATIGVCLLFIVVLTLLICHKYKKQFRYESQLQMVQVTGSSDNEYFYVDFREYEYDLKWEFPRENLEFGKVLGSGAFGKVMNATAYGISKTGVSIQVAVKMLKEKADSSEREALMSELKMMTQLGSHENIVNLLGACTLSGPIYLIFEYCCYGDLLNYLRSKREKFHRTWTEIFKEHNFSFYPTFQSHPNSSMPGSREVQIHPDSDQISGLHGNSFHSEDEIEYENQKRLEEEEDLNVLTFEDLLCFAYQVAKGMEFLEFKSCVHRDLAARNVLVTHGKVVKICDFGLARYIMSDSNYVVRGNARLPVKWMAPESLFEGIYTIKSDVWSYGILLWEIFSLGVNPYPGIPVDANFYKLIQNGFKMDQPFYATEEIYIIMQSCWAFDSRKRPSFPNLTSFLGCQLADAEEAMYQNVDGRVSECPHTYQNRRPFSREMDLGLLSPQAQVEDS
UniProt P07333, 20-972 limits assumed: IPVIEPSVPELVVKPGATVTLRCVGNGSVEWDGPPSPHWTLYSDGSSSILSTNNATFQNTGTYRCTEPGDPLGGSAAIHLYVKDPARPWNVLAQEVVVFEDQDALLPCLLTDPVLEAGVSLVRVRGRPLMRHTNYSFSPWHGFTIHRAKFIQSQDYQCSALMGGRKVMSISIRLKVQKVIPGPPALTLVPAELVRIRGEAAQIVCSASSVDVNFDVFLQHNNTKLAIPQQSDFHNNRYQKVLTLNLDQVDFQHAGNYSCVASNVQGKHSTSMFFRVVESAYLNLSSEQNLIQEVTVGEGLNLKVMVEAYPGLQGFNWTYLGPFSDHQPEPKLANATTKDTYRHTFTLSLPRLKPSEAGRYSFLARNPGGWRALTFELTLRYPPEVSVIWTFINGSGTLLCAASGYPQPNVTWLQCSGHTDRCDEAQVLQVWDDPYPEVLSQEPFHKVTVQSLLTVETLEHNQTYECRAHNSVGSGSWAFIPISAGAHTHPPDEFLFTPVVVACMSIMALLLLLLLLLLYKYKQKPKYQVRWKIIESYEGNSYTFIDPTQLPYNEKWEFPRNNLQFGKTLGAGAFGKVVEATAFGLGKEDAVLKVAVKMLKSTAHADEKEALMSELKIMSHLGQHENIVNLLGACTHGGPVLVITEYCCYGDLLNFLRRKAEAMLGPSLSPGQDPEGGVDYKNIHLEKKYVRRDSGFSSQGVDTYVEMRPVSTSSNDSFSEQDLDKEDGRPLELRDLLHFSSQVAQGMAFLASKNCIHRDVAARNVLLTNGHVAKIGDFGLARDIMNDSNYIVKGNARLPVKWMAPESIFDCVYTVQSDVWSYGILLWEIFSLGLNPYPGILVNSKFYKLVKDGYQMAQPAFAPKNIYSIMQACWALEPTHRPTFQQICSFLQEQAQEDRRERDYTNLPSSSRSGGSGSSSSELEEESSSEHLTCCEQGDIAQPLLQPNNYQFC
UniProt Q9H1R3, whole entry: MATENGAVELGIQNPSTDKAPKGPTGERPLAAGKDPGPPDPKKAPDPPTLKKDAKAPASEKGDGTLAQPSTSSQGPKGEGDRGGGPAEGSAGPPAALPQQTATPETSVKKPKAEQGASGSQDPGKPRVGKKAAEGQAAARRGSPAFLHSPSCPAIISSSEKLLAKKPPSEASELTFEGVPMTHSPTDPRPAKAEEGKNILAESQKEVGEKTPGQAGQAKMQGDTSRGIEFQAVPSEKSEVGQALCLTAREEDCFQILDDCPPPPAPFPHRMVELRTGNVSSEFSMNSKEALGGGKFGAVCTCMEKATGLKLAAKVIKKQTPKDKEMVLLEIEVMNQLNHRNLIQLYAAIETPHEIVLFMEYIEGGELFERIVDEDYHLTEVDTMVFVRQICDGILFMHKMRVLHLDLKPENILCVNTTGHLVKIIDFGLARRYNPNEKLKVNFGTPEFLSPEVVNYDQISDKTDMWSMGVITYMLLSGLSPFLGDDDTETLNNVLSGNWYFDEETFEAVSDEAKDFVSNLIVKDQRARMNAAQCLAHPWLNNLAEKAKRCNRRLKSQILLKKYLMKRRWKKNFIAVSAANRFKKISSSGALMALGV

Molecules are shown by their SMILES. Where two headings read alike, the source gives them in different places. Structures were worked out from names or drawings and are uncertain.

In experiment [1] the target is T1, FLT3 (Homo sapiens, UniProt P36888). The experiment can be described thus: SelectScreen FLT3 kinase dose response assay. In kind it is biochemical. The note with it: ATP 100 micromolar.
Experiment [2] deals with MdaMb231 cells. The experiment is described as follows: in vitro scratch (cell migration) assay. The format is cell-based. The note with it: Table 5 summary; concentration inhibiting migration. How it is done: Compounds of Table 5 were tested in comparison with Symadex and Sutent™ (sunitinib) for their ability to inhibit the migration of MdaMb231 cells. The in vitro scratch assay is used to determine the ability of cancer cells to migrate into and close an open wound; such migration is considered to have a role in metastasis of tumor cells.
Cells were plated in gelatin-coated 6-well plates and grown until a confluent monolayer was formed. When confluent, a straight scratch was made with a p200 pipette tip, cells were washed and compounds were added at concentrations of 1 μM, 2.5 μM, 5 μM, 10 μM and 20 μM. Images were taken at specific reference points at 0, 24 and 48 hours with Zeiss Axiovert 40 CFL microscope and Axiocam MRc5 camera and the ability of the cells to move in and close the wound was measured.
The data is presented in FIG. 1, which is a bar plot of percent cell migration into the “wound” in each sample (measured with respect to the control) and FIG. 2, which is a plot of percent wound confluence as a function of time (measured with respect to the control).

The target in a further experiment is CSF-1R (Homo sapiens, UniProt P07333). The experiment can be described thus: Kinase EC50 (10 pt curve or estimate, ATP Kmapp). In kind it is biochemical. The note with it: read-out: EC50 CSF-1R; from 10 pt curve or estimate based on 1 μm inhibition assay at ATP Kmapp.
For experiment [3], the target named is T1, FLT3. The experiment is described as follows: Kinase EC50 (10 pt curve or estimate, ATP Kmapp). The format is biochemical. The note with it: read-out: EC50 Flt3; from 10 pt curve or estimate based on 1 μm inhibition assay at ATP Kmapp.
A further experiment deals with FLT3 D835Y (Homo sapiens, UniProt P36888, D835Y). The experiment is described as follows: Kinase EC50 (10 pt curve or estimate, ATP Kmapp). The format is biochemical. The note with it: read-out: EC50 Flt3-D835Y; from 10 pt curve or estimate based on 1 μm inhibition assay at ATP Kmapp.
Another experiment concerns the target MLCK (Homo sapiens, UniProt Q9H1R3). The experiment can be described thus: Kinase EC50 (10 pt curve or estimate, ATP Kmapp). The format is biochemical. To be noted: read-out: EC50 MLCK; from 10 pt curve or estimate based on 1 μm inhibition assay at ATP Kmapp.
Experiment [4] deals with MV4-11 (leukemia) cell line. The experiment is described as follows: sulforhodamine B (SRB) cytotoxicity assay.
Experiment [5] deals with MdaMb231 (breast cancer) cell line. The experiment can be described thus: sulforhodamine B (SRB) cytotoxicity assay. Background: The SRB assay estimates cell density from bound dye.
For experiment [6], the system named is PC-3 (prostate cancer) cell line. The experiment is described as follows: sulforhodamine B (SRB) cytotoxicity assay. The note with it: read-out: IC50 Measured Against PC-3 Cell Line; 100 μM highest concentration, diluted 1:5; 3 day incubation.
For experiment [7], the system named is U266B1 (multiple myeloma) cell line. The experiment can be described thus: sulforhodamine B (SRB) cytotoxicity assay. To be noted: read-out: IC50 Measured Against U266B1 Cell Line; 100 μM highest concentration, diluted 1:5; 3 day incubation.
In experiment [8] the test system is MdaMb231 cells. The experiment can be described thus: BrdU cell proliferation assay.

As usually defined, the EC50 is the concentration giving half of the maximal effect. In general, IC50 refers to the concentration that inhibits the measured activity by half. Take `CN(C)CCCCNc1ccc2ncn3c4ccc5[nH]ncc5c4c(=O)c1c23`: the “FLT3 Inhibition E1000 (percent inhibition at 1000 nMolar)” value on FLT3 [1] (1000 nMolar compound) was determined as 100%. Also, the EC50 is 0.002 µM on FLT3 [1] (read-out: FLT3 Inhibition EC50, dose response, 4 parameter Hill equation); 0.153 µM at CSF-1R; 0.005 µM on FLT3 [3]; 0.007 µM at FLT3 D835Y; 0.018 µM at MLCK. Moreover, the Migration with MdaMb231 cells [2] amounted to 2.5 μm. The IC50 is under 0.001 µM in [4] (read-out: IC50 Measured Against MV4-11 Cell Line, 100 μM highest concentration, diluted 1:5, 3 day incubation); under 0.001 µM in [4] (read-out: IC50 SRB assay MV4-11, Table 5 summary); 5.2 µM in experiment [5] (read-out: IC50 Measured Against MdaMb231 Cell Line, 100 μM highest concentration, diluted 1:5 (two series), 3 day incubation); 5.2 µM in experiment [5] (read-out: IC50 SRB assay Mda MB-231, Table 5 summary); 3.28 µM in experiment [6]; 12.4 µM in experiment [7]. The “concentration at which cell proliferation was inhibited (BrdU)” value in the experiment on MdaMb231 cells [8] (MdaMb231 cells, 24 hour treatment) was found to be 20 µM. Moreover, the “BrdU (Inhibition of cell proliferation)” value in the experiment on MdaMb231 cells [8] (Table 5 summary, concentration inhibiting proliferation) turned out to be 10 μm.
